PubChem BioAssay AID1259405 – NCATS, 2018
In all, the deposit lists about 50,000 reagents; shown is a random part of them. About 4,000 of all reagents (8%) count as active. 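Mouse siRNA library applied to hamster cells; one well for each siRNA.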 Unmarked entries are inactive. The numbers tell different reagents against one gene apart.

Purpose: 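Knock-downs that lift recombinant protein yield in hamster ovary cells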 (primary screen)
Cell system: Chinese hamster CHO-K1 ovary cells with stable secreted eGFP expression
Reagent: single siRNA against mouse genes, 0.8 pmol siRNA per well (2 µl of 400 nM stock)
Time to read-out: 3 days
Read-out: 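Per-well intracellular GFP measured by laser scanning cytometry, plus viability from ATP luminescence, each relative to plate median of non-targeting control wells, in %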
Reading the numbers: GFP, % of control: higher = more GFP per well, higher productivity; viability (ATP), % of control: higher = more viable cells (more ATP)
Rule for the call: 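Called active when intracellular GFP, relative to negative control, is at or above 120%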

no.	target	siRNA no.	GFP, % of control	viability (ATP), % of control
1	Faf1	1	94.8	78.4
2	Faf1	2	55	72.8
3	Faf1	3	73.8	70.7
4	Clic6	1	64.2	100
5	Clic6	2	65.7	69.8
6	Clic6	3	42.4	36.7
7	Tecrl	1	68.3	97.9
8	Tecrl	2	75.7	88.8
9	Tecrl	3	198 (active)	168
10	Nme4	1	109	96.7
11	Gzmk	1	170 (active)	100
12	Gzmk	2	152 (active)	114
13	Gzmk	3	58.8	57.6
14	Or4a78	1	40.8	74.5
15	Or4a78	2	54.8	97.5
16	Or4a78	3	81.2	129
17	Oas3	1	112	135
18	Oas3	2	76.7	90
19	Eps8l2	1	94.7	51.2
20	Eps8l2	2	95.7	71.1
21	Tmem79	1	48.7	58.2
22	Tmem79	2	89.6	83.7
23	Tmem79	3	84.8	78.3
24	Or4c111	1	58.2	73.7
25	Or4c111	2	59.8	58.3
26	Or4c111	3	58.1	92.8
27	Col28a1	1	106	100
28	Col28a1	2	93.1	84.3
29	Col28a1	3	64	73.5
30	B4galt2	1	56.2	50.6
31	B4galt2	2	71	72.2
32	B4galt2	3	75.5	55.7
33	Or8b50	1	114	82.1
34	Or8b50	2	146 (active)	47.8
35	Or8b50	3	53.3	91.4
36	Dync1li2	1	122 (active)	113
37	Dync1li2	2	51	66.3
38	Tmem245	1	82.6	93.4
39	Tmem245	2	2.25	2.58
40	Tmem245	3	91.9	97.4
41	Sirt2	1	80	80.3
42	Sirt2	2	75.6	65.4
43	Chil6	1	91.7	75.4
44	Chil6	2	113	92.8
45	Chil6	3	51.7	58.6
46	Zfp696	1	56.7	56.9
47	Zfp696	2	75.5	82.5
48	Zfp696	3	83.8	100
49	Leng1	1	73	67
50	Leng1	2	55.1	32.3
51	Leng1	3	56.9	89.6
52	Ankrd10	1	80.3	47
53	Ankrd10	2	57.6	57.7
54	Ankrd10	3	79.6	65.6
55	Sctr	1	84	40
56	Sctr	2	100	99.2
57	Sctr	3	61.5	64.8
58	Vmn1r195	1	77.8	71.3
59	Vmn1r195	2	91.6	87.5
60	Vmn1r195	3	98.7	86.9
61	Dcn	1	108	84.4
62	Dcn	2	51.4	86
63	Dcn	3	84.7	79.2
64	Ceacam1	1	89.1	45.5
65	Ceacam1	2	42.6	73.7
66	Ceacam1	3	76.9	70.6
67	Klhl31	1	86.6	90.7
68	Klhl31	2	48.4	40.3
69	Klhl31	3	68.4	68.1
70	Klhl31	4	79.3	71.6
71	Klhl31	5	68	79.7
72	Klhl31	6	56.4	92.2
73	Or4c103	1	74.4	67.3
74	Or4c103	2	88.7	65.9
75	Or4c103	3	86.5	75
76	B3gnt2	1	130 (active)	83.6
77	B3gnt2	2	53.3	73.8
78	B3gnt2	3	54.6	55.3
79	Or7e177	1	77.3	79.3
80	Or7e177	2	97.9	72.4
81	Or7e177	3	67.4	80.6
82	Pcdha2	1	50.8	68.2
83	Pcdha2	2	57	40.7
84	Pcdha2	3	89.5	81.6

A run of entries of the results above, as a working copy:
no.	target	siRNA no.	GFP, % of control	viability (ATP), % of control
35	Or8b50	3	53.3	91.4
36	Dync1li2	1	122 (active)	113
37	Dync1li2	2	51	66.3
38	Tmem245	1	82.6	93.4
